In paper PMC12306736 (PLOS Genetics, 2025):
Where two headings read alike, the source gives them in different places.

Experiments:
B. ovis [1] = assay: microbe, parasite or virus in culture; assay type: cell-based; conditions: Brucella ovis, read-out: Axenic IC50
B. ovis [2] = assay: microbe, parasite or virus in culture; assay type: cell-based; conditions: Brucella ovis, THP-1, read-out: Intracellular IC50

O=C1CCc2ccc(OCCCCN3CCN(c4cccc(Cl)c4Cl)CC3)cc2N1 [Aripiprazole]
IC50 (B. ovis [1]): > 50 µM
IC50 (B. ovis [2]): 4 µM
